Results on two molecules are retold here after publication doi:10.1101/2022.01.19.477021.

In assay [1] the target is Crn1-IDR (intrinsically disordered region, aa 401-604) (S. cerevisiae) (UniProt Q06440). Kind of assay: AUC.
Assay [2] addresses Crn1-ΔCC (aa 1-604) (S. cerevisiae) (UniProt Q06440). Kind of assay: AUC.

These are yes or no findings as the source states them, for the method shown.

B1: Crn1-IDR (intrinsically disordered region, aa 401-604) (domain or fragment, UniProt Q06440 401-604)
chain: RSIYDGSAPSFHEAKRPQQPTTQETALEEKKEQPKVEKPISESEKEVKQEAPKSPSPLKSASSSSTINHVLKEDNSINKLLKKSSDIDQVNNAEDPSRDTSGWEEADDEPAPIKIETPVTPTETKKDRTPKVEPSKELKPEPVSIATDRKQEQSLPQEEKSSEKTKSPEQEKSATPPSSITAAKTAITASSKEEPSAARTSPKS
B1: in assay [1], the binding result is “no binding (tested: 3 µM)”.

B2: Crn1-ΔCC (aa 1-604) (domain or fragment, UniProt Q06440 1-604)
chain: MSGKFVRASKYRHVFGQAAKKELQYEKLKVTNNAWDSNLLKTNGKFIAVNWNASGGGAFAVIPIEEVGKAPDQVPLFRGHTAQVLDTDFDPFNDHRIASGSDDSKIGIWDIPENYKFHDHVDEDGEPIDIKPVKFLTGHARKVGHVLYHPVAENVLASSSGDYTVKLWNVETGKDMITLKHPDMVTSMSFSYDGNYLATVARDKKLRVWNIREEKIVSEGPAHTGAKNQRVVWLGNSDRLATTGFSKLSDRQIGIWDAFNIEKGDLGGFYTVDQSSGILMPFYDEGNKILYLVGKGDGNIRYYEFQNDELFELSEFQSTEAQRGFAVAPKRMVNVKENEVLKGFKTVVDQRIEPVSFFVPRRSEEFQEDIYPDAPSNKPALTAEEWFSGKSVEGPILVSMRSIYDGSAPSFHEAKRPQQPTTQETALEEKKEQPKVEKPISESEKEVKQEAPKSPSPLKSASSSSTINHVLKEDNSINKLLKKSSDIDQVNNAEDPSRDTSGWEEADDEPAPIKIETPVTPTETKKDRTPKVEPSKELKPEPVSIATDRKQEQSLPQEEKSSEKTKSPEQEKSATPPSSITAAKTAITASSKEEPSAARTSPKS
In the case of B2, the binding entry in assay [2] is “no binding (tested: 9.2 µM)”.
